# Test results published in PubChem BioAssay AID662 (National Center for Advancing Translational Sciences (NCATS), 2007).
# Some of the results follow. Further columns of the screen follow, without active or inactive calls. The list favours compounds with an active or inconclusive main result. Potencies come from curve fits of mixed quality, noted in brackets.
# Assay: Cell signaling CRE-BLA (Fsk stim)
# Conditions: CHO CRE-bla reporter (cAMP response element driving beta-lactamase), forskolin EC10, beta-lactamase ratio; measured here: 460 nm blue channel
# Outline: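 CRE-bla CHO reporter cells treated with compound titration plus EC10 NKH 477 (water-soluble forskolin), incubated 3 h at 37 °C; CCF4 loading 2 h at room temperature, 460/530 nm emission ratio read, AC50 values derived for positive or negative modulators.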
row,Structure (SMILES),AC50
1,COC(=O)c1cc(OC)c(OC)cc1NC(=O)CSc1nnnn1Cc1ccccc1,"10 µM [rising, single point]"
2,CCCn1c(SCC(=O)c2cc(OC)ccc2OC)nnc1-c1ccco1,"10 µM [rising, single point]"
3,Cc1cc(N2CCN(S(=O)(=O)c3ccc(Cl)cc3)CC2)c2ccccc2n1,"25.1 µM [falling, single point]"
4,O=C(CSc1ncnc2c1oc1ccccc12)OCc1ccccc1,"25.1 µM [rising, single point]"
5,COc1ccccc1NC(=O)CSc1ccc2nnc(-c3cccnc3)n2n1,"12.6 µM [rising, single point]"
6,COc1ccccc1NC(=O)CCN1C(=O)C2CC=C(Cl)CC2C1=O (stereo not drawn),"0.398 µM [rising, full curve, poor fit]"
7,Cc1nc2c(nnn2Cc2ccccc2)c(=O)n1-c1ccccc1,"0.316 µM [falling, partial curve, poor fit]"
8,Clc1ccc2nc(SCc3nnc(-c4ccccc4)o3)[nH]c2c1,"12.6 µM [rising, partial curve]"
9,CC1CN(c2nc(-c3ccccc3)nc3ccccc23)CC(C)O1 (stereo not drawn),"1.26 µM [rising, partial curve]"
10,CCCCCn1c(CNC(=O)c2cccs2)nc2ccccc21,"0.00316 µM [rising, full curve, poor fit]"
11,C=CCn1c(SCCCc2ccccc2)nc2c1c(=O)[nH]c(=O)n2C,"3.16 µM [rising, single point]"
12,COc1ccc(-c2noc(-c3cccc(OC)c3OC)n2)cc1OC,"2 µM [rising, full curve]"
13,NC(=O)c1ccsc1NC(=O)C1CCCN1S(=O)(=O)c1ccc(Cl)cc1 (stereo not drawn),"12.6 µM [falling, partial curve]"
14,O=C(C1CCCCC1)N1CCN(S(=O)(=O)c2ccc(Cl)cc2)CC1,"25.1 µM [falling, partial curve]"
15,COC(=O)C1=C(N)Oc2cc(C)n(Cc3cccnc3)c(=O)c2C1c1cccc(OC)c1OC (stereo not drawn),"20 µM [rising, single point]"
16,COc1ccc(C(c2c(O)ccc3ccccc23)N2CCOCC2)c(OC)c1 (stereo not drawn),"1.26 µM [falling, full curve]"
17,C=CCn1c(=O)n(CC=C)c(=O)n(CC=C)c1=O,"12.6 µM [rising, partial curve]"
18,Cc1nc(N2CCN(c3ccccc3)CC2)nc2c1C(=O)CCC2,"2 µM [falling, partial curve]"
19,COCc1nnc(NC(=O)c2cc(Cl)ccc2OC)s1,"10 µM [rising, partial curve]"
20,Cc1nn(-c2ccccc2)c2sc(C(=O)n3cccn3)cc12,"25.1 µM [rising, single point]"
21,O=C(CCC(=O)c1cccs1)OCc1nc2ccccc2s1,"0.126 µM [falling, single point]"
22,CCOC(=O)CSc1nc(C)c(C(=O)OCC)s1,"5.01 µM [falling, single point]"
23,COC(=O)[C@@H](NC(=O)N(C1CCCCC1)C1CCCCC1)C(C)C,"0.0158 µM [falling, full curve, poor fit]"

row,Structure (SMILES),AC50
1,O=C(c1ccccc1)N(Cc1ccc2c(c1)OCO2)Cc1nc2ccccc2c(=O)[nH]1,"12.6 µM [rising, partial curve]"
2,Cn1c(=N)c(S(=O)(=O)c2ccc(F)cc2)cc2c(=O)n3ccccc3nc21,"1.58 µM [rising, full curve]"
3,O=C(Nc1cccc2cccnc12)c1ccc(Br)o1,"25.1 µM [rising, single point]"
4,COc1ccc2nc(NC(=O)Cn3cnc4c(=O)n(C)c(=O)n(C)c43)sc2c1,"7.94 µM [rising, partial curve]"
5,Cc1c(O)c(CN2CCCC2)cc2c3c(c(=O)oc12)CCC3,"12.6 µM [rising, partial curve]"
6,CCOC(=O)Nc1ccc2c(c1)ncn2C1CCCCC1,"10 µM [rising, partial curve]"
7,CC(=O)NC(CCS(C)(=O)=O)C(=O)Nc1cccc(C)c1C (stereo not drawn),"20 µM [rising, single point]"
8,COc1ccccc1N1CCN(C[C@@H](C(=O)NC(C)(C)C)c2ccccc2)CC1,"31.6 µM [falling, single point]"
9,O=S(=O)(c1ccccc1)N1CCN(c2nnnn2-c2ccccc2)CC1,"5.01 µM [falling, single point]"
10,CCOCCCNC(=O)C(NC(=O)c1cnccn1)c1ccc(OC)cc1 (stereo not drawn),"0.126 µM [falling, full curve, poor fit]"
11,COc1ccc(OCCCC(=O)Nc2ccc3c(c2)OCCO3)cc1,"5.01 µM [falling, partial curve]"
12,CCOc1ccc(CNC(=O)C2CCN(S(=O)(=O)CC)CC2)cc1OC,"12.6 µM [falling, partial curve, poor fit]"
13,Cn1c(=O)c2c(nc(CN3CCN(c4ccccc4)CC3)n2CCCc2ccccc2)n(C)c1=O,"0.398 µM [falling, full curve, poor fit]"
14,O=C(Cn1cnc2ccccc2c1=O)NC1CCCc2ccccc21 (stereo not drawn),"0.0794 µM [falling, partial curve, poor fit]"
15,Cc1ccc2[nH]c(=O)c3cc(C(=O)N(C)Cc4ccco4)sc3c2c1,"10 µM [rising, partial curve]"
16,CC1(C)CC(=O)C(C=NCCC2=CCCCC2)=C(O)C1,"0.00316 µM [falling, full curve, poor fit]"
17,CCOc1ccc(CCNS(=O)(=O)c2cccc3nsnc23)cc1OCC,"10 µM [rising, partial curve]"
18,CCc1nnc(NC(=O)CSc2nc3c(cc2C#N)CCCC3)s1,"2.51 µM [rising, full curve]"
19,COc1cccc(NC(=O)Cc2cn(C)c3ccccc23)c1,"1 µM [falling, full curve]"
20,COc1ccc(-n2c(=O)c(-c3ccc(Cl)cc3)nc3cnc(N(C)C)nc32)cc1,"5.01 µM [rising, partial curve]"
21,O=c1c(-c2cc(F)cc(F)c2)nc2cnc(Oc3ccccc3)nc2n1C[C@H]1CCCO1,"3.98 µM [rising, single point]"
22,O=C(CN(c1ccc(F)cc1)S(=O)(=O)c1ccc2c(c1)OCCO2)Nc1ccc2c(c1)OCO2,"5.01 µM [falling, partial curve]"
23,CN(C)c1nc(Oc2ccc(C(=O)OCC(=O)Nc3ccccc3)cc2)nc(N(C)C)n1,"0.0158 µM [falling, full curve]"

row,Structure (SMILES),AC50
1,Clc1ccc(C2Nc3ccccc3-n3cccc32)cc1 (stereo not drawn),"7.94 µM [rising, partial curve]"
2,COCCn1c(=O)c(-c2ccc(Cl)cc2)nc2cnc(Oc3ccccc3)nc21,"15.8 µM [rising, partial curve]"
3,COCCN(CCOC)Cc1c(O)ccc2c3c(c(=O)oc12)CCC3,"12.6 µM [rising, partial curve]"
4,CC(=O)c1cccc(NC(=O)CCS(=O)(=O)c2cccc3nonc23)c1,"1.58 µM [rising, partial curve]"
5,CCCCOc1ccccc1NC(=O)CC1SC(=NCC)N(CC)C1=O (stereo not drawn),"0.251 µM [rising, full curve, poor fit]"
6,CCn1c(=O)cc(OCC(=O)Nc2ccccc2N2CCN(C)CC2)c2ccccc21,"5.01 µM [rising, partial curve]"
7,CC(C)OC(=O)c1cccc(C(=O)O)n1,"0.794 µM [rising, full curve]"
8,O=C(NCc1ccncc1)c1c(F)c(F)c(F)c(F)c1F,"31.6 µM [falling, single point]"
9,CN(C)c1ncc2nc(-c3cccs3)c(=O)n(CCc3ccccc3)c2n1,"5.01 µM [rising, partial curve]"
10,Cc1ccc(S(=O)(=O)c2cc3c(=O)n4ccccc4nc3n(Cc3ccco3)c2=N)cc1,"10 µM [rising, partial curve]"
11,CCN(CC)CCCNC(=O)c1cc2c(-c3ccc(Cl)cc3)nn(C)c2s1,"6.31 µM [rising, partial curve]"
12,O=c1c2c3c(sc2nc2n1CCCC2)CCC3,"12.6 µM [rising, partial curve]"
13,COc1ccccc1NC(=O)CSc1nc2ncccc2[nH]1,"0.02 µM [rising, full curve]"
14,CCOc1ccc(S(=O)(=O)N(CC(=O)N2CCc3ccccc32)Cc2ccco2)cc1,"25.1 µM [falling, single point]"
15,COC(=O)C1=C(C)N(c2cc(Cl)cc(Cl)c2)C(=O)C1,"12.6 µM [falling, partial curve]"
16,CCCCn1c(SCC(=O)N2CCCC2)nc2c1c(=O)n(C)c(=O)n2C,"20 µM [rising, single point]"
17,O=C(CSc1nnc(-c2cccs2)n1-c1ccccc1)Nc1ccccc1,"7.94 µM [rising, partial curve]"
18,O=c1c(-c2cc(F)cc(F)c2)nc2cnc(N3CCOCC3)nc2n1C1CC1,"1.58 µM [rising, partial curve]"
19,CCCCOC(=O)Cn1c(=N)n(CCN2CCOCC2)c2ccccc21,"12.6 µM [falling, single point]"
20,O=C(c1cc2c(s1)CCC2)N1C(=O)c2ccccc2S1(=O)=O,"3.16 µM [falling, single point]"
21,O=c1c(-c2ccc(Cl)cc2)nc2cnc(N3CCOCC3)nc2n1-c1ccccc1,"0.398 µM [rising, full curve]"
22,O=CCCCC=O,"25.1 µM [rising, partial curve]"

# 15 consecutive entries already listed, quoted:
row,Structure (SMILES),AC50
5,CCCCOc1ccccc1NC(=O)CC1SC(=NCC)N(CC)C1=O (stereo not drawn),"0.251 µM [rising, full curve, poor fit]"
6,CCn1c(=O)cc(OCC(=O)Nc2ccccc2N2CCN(C)CC2)c2ccccc21,"5.01 µM [rising, partial curve]"
7,CC(C)OC(=O)c1cccc(C(=O)O)n1,"0.794 µM [rising, full curve]"
8,O=C(NCc1ccncc1)c1c(F)c(F)c(F)c(F)c1F,"31.6 µM [falling, single point]"
9,CN(C)c1ncc2nc(-c3cccs3)c(=O)n(CCc3ccccc3)c2n1,"5.01 µM [rising, partial curve]"
10,Cc1ccc(S(=O)(=O)c2cc3c(=O)n4ccccc4nc3n(Cc3ccco3)c2=N)cc1,"10 µM [rising, partial curve]"
11,CCN(CC)CCCNC(=O)c1cc2c(-c3ccc(Cl)cc3)nn(C)c2s1,"6.31 µM [rising, partial curve]"
12,O=c1c2c3c(sc2nc2n1CCCC2)CCC3,"12.6 µM [rising, partial curve]"
13,COc1ccccc1NC(=O)CSc1nc2ncccc2[nH]1,"0.02 µM [rising, full curve]"
14,CCOc1ccc(S(=O)(=O)N(CC(=O)N2CCc3ccccc32)Cc2ccco2)cc1,"25.1 µM [falling, single point]"
15,COC(=O)C1=C(C)N(c2cc(Cl)cc(Cl)c2)C(=O)C1,"12.6 µM [falling, partial curve]"
16,CCCCn1c(SCC(=O)N2CCCC2)nc2c1c(=O)n(C)c(=O)n2C,"20 µM [rising, single point]"
17,O=C(CSc1nnc(-c2cccs2)n1-c1ccccc1)Nc1ccccc1,"7.94 µM [rising, partial curve]"
18,O=c1c(-c2cc(F)cc(F)c2)nc2cnc(N3CCOCC3)nc2n1C1CC1,"1.58 µM [rising, partial curve]"
19,CCCCOC(=O)Cn1c(=N)n(CCN2CCOCC2)c2ccccc21,"12.6 µM [falling, single point]"
